From the supplement of paper PMC6411743
± gives the standard deviation of the averaged measurements. The entries are a selection whose mix differs from that of the whole data set.

Chains of the proteins cited; added tags and fusions are not shown. Lines headed by an entry give the natural chain unless they say otherwise; changes in a name come on top.
UniProt P06132: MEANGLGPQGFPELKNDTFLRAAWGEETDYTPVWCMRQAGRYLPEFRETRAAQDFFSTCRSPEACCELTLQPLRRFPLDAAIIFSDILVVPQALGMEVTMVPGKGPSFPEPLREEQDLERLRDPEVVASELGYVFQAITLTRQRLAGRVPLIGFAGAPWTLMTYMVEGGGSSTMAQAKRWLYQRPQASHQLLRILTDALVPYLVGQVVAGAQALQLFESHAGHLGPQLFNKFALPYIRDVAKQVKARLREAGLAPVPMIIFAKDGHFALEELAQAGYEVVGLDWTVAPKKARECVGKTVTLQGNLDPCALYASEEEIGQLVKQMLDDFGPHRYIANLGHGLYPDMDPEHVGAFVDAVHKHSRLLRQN
UniProt O96005: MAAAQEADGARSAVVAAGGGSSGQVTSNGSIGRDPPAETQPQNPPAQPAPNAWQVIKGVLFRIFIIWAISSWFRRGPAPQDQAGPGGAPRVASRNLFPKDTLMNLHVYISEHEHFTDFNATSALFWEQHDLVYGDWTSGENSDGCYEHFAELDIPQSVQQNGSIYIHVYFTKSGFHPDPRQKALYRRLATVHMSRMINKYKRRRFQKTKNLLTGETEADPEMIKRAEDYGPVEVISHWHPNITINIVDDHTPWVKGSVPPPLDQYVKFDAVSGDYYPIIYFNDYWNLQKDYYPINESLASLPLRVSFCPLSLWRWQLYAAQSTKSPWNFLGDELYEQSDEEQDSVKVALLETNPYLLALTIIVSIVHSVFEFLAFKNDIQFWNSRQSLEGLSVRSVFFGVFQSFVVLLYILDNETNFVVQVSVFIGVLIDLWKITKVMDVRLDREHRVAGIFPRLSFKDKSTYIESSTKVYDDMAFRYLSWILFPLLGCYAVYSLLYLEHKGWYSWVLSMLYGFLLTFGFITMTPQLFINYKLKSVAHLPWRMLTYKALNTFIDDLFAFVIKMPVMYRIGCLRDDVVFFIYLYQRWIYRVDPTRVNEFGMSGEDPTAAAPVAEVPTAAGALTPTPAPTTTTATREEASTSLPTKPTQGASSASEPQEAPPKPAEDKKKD
UniProt P10114: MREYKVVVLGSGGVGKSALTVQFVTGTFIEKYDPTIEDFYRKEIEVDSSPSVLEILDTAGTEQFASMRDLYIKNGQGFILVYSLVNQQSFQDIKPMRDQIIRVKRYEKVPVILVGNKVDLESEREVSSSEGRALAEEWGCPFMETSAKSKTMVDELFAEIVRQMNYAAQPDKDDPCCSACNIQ
UniProt O95980: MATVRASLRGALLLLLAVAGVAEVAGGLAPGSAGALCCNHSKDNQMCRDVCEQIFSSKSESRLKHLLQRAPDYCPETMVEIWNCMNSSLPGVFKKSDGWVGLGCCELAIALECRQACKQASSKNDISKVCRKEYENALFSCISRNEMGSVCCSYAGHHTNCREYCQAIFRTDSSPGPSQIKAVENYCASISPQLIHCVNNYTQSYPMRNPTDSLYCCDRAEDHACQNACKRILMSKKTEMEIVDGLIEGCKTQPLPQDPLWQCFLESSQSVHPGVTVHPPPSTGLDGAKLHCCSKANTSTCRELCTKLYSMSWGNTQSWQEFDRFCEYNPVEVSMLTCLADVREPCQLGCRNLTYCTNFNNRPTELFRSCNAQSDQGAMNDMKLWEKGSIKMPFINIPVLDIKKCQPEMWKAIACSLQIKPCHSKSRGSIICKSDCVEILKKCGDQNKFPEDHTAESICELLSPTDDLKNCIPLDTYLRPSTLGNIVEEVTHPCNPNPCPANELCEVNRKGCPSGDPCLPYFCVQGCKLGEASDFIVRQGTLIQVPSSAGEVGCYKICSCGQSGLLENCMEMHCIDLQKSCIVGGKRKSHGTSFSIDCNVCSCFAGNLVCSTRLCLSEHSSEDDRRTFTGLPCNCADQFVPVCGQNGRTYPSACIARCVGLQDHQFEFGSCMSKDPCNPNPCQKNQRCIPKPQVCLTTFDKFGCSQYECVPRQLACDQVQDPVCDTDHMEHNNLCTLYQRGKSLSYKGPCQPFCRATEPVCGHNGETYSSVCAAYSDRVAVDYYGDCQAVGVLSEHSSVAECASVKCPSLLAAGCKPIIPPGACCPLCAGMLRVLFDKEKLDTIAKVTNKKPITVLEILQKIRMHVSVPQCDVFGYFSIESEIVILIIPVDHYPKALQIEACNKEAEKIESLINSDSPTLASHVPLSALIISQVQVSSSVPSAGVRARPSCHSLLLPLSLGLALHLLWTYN
UniProt O95989: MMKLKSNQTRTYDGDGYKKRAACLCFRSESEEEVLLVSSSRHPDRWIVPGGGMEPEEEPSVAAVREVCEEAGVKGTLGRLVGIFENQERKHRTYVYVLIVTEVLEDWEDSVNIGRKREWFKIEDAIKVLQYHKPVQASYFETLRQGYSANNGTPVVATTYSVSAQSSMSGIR
UniProt P10599: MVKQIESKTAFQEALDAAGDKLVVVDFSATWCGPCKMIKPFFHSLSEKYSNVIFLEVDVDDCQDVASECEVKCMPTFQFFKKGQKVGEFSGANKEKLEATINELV
UniProt P13861, whole entry: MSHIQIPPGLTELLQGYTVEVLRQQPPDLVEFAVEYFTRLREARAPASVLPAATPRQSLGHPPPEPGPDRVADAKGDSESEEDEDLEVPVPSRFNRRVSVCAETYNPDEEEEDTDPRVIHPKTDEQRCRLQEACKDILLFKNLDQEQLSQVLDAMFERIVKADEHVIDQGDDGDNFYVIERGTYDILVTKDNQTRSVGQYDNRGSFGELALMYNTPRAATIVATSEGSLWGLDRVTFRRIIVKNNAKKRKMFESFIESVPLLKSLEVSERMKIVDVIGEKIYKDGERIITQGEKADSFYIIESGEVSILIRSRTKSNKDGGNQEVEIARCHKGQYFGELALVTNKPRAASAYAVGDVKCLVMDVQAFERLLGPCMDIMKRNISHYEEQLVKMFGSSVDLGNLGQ
UniProt P07686: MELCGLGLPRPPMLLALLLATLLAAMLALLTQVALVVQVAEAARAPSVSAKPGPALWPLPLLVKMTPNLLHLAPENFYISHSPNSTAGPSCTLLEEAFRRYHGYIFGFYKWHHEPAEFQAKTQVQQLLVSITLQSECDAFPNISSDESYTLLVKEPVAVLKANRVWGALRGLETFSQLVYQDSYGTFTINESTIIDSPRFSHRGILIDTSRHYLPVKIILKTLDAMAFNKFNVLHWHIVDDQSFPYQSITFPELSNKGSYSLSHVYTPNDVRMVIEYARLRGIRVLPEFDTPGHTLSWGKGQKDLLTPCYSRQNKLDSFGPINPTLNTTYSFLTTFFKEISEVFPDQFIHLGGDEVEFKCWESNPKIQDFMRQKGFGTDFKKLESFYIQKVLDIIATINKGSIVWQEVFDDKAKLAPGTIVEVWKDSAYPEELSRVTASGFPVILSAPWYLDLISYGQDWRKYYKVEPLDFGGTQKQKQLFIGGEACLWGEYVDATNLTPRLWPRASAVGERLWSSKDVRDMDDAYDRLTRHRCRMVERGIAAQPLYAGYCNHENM
UniProt P09132: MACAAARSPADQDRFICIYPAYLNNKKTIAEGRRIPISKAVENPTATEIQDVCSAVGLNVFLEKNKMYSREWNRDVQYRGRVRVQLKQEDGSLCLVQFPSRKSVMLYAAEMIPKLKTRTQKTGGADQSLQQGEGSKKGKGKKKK
UniProt P08047, whole entry: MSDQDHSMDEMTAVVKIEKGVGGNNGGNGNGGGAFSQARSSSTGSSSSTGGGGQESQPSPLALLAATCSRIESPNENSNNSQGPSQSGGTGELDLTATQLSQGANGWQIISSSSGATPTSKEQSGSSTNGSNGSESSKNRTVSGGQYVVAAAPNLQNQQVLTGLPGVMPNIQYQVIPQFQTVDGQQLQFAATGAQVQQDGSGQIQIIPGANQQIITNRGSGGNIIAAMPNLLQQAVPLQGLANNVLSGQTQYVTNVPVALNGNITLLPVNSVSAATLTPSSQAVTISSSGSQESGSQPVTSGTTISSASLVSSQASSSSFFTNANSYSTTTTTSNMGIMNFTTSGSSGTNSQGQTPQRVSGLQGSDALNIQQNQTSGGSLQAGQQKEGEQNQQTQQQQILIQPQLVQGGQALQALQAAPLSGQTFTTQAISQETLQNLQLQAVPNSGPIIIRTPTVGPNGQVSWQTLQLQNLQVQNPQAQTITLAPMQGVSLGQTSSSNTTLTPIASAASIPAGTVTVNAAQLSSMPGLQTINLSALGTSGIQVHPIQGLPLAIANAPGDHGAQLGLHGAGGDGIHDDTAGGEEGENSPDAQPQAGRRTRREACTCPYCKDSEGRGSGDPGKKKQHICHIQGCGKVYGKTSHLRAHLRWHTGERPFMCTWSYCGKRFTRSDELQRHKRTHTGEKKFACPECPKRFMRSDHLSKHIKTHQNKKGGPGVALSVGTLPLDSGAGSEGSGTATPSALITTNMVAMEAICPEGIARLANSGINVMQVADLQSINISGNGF
UniProt O95857: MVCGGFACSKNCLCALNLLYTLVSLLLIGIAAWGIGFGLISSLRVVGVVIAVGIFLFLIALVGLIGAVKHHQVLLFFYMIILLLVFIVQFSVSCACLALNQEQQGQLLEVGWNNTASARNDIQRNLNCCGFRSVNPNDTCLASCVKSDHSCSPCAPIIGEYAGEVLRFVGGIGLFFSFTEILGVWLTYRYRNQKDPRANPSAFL
UniProt P02795: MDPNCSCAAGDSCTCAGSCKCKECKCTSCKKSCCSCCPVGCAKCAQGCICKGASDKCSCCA
UniProt P13051, whole entry: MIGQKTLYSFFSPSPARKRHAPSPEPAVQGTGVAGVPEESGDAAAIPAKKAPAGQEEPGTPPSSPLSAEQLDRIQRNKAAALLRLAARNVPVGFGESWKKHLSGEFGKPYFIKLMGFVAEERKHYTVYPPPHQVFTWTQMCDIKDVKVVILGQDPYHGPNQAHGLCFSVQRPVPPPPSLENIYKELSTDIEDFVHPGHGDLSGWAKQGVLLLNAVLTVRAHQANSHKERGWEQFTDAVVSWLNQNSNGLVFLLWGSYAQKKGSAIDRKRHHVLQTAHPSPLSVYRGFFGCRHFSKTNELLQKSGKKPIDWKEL
UniProt O96008: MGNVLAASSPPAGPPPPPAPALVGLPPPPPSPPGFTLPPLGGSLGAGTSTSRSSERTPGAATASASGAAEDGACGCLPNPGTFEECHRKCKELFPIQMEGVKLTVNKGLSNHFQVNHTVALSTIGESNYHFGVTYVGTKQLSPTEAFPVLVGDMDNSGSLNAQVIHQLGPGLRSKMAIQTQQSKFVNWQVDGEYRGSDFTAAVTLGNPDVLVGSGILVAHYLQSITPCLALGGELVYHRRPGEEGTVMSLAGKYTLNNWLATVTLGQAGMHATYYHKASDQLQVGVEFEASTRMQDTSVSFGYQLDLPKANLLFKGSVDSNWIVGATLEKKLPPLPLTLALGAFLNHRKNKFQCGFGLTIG
UniProt P00505: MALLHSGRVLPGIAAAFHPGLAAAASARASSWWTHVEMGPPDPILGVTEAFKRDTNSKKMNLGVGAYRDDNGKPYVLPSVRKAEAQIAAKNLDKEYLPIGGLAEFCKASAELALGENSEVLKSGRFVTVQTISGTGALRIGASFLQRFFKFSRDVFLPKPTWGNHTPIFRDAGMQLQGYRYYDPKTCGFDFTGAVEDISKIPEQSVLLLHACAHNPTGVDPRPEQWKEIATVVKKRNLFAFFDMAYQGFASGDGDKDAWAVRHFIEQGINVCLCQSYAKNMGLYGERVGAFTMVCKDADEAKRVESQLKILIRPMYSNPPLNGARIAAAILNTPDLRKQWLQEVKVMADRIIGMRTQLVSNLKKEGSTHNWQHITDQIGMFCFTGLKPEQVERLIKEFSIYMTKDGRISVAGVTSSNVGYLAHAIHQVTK
UniProt P00558: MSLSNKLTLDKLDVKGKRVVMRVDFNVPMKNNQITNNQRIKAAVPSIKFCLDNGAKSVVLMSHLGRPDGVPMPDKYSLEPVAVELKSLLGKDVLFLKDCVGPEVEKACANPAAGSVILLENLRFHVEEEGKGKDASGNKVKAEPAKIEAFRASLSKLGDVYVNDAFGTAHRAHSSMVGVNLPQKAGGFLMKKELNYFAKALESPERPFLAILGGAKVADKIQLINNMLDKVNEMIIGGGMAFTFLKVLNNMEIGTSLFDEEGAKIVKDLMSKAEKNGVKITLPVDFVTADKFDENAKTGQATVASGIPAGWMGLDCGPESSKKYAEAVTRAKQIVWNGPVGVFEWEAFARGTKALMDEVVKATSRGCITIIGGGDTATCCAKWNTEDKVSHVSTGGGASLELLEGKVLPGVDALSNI
UniProt P07355, whole entry: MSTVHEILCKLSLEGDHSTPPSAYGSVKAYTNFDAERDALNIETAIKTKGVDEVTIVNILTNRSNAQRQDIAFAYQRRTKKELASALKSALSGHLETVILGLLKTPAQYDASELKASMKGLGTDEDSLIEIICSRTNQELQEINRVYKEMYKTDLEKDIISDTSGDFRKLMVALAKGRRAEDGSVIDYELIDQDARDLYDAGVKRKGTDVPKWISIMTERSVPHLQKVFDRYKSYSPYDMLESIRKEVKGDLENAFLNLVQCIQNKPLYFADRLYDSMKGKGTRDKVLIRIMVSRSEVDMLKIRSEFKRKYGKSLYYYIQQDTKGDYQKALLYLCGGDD

Compound: Nc1ncnc2c1ncn2[C@@H]1O[C@H](COP(=O)(O)OP(=O)(O)OP(=O)(O)O)[C@@H](O)[C@H]1O [adenosine triphosphate]
Test: NP40-soluble protein abundance relative to vehicle (solubility fold change) (ratio); higher = more soluble protein in presence of ATP
In short: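 Each value is a fold change relative to the detergent-processed vehicle, calculated per replicate from vsn-normalised intensities. Jurkat crude lysate received eight concentrations (0.1 to 10 mM) for 10 min at room temperature and 3 min at 37 °C, then was solubilised in 0.8% NP40 with benzonase (60 min, 4 °C). The ultracentrifuged supernatant was TMT-labelled and run by LC-MS/MS in three independent experiments.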

Target	NP40-soluble protein abundance (concentration: 1mM)	NP40-soluble protein abundance (concentration: 2mM)	NP40-soluble protein abundance (concentration: 4mM)	NP40-soluble protein abundance (concentration: 6mM)	NP40-soluble protein abundance (concentration: 8mM)	NP40-soluble protein abundance (concentration: 10mM)
ALDOC (UniProt P09972)	1.01 ± 0.034	1.01 ± 0.037	0.988 ± 0.047	1 ± 0.049	0.968 ± 0.054	0.957 ± 0.05
UROD (UniProt P06132)	0.9889 ± 0.0093	0.9953 ± 0.0074	0.98 ± 0.06	0.996 ± 0.043	0.988 ± 0.082	0.961 ± 0.05
CLPTM1 (UniProt O96005)	0.963 ± 0.047	0.976 ± 0.056	0.999 ± 0.052	0.944 ± 0.09	0.944 ± 0.03	0.973 ± 0.049
RAP2A (UniProt P10114)	1 ± 0.25	1.12 ± 0.22	1.13 ± 0.21	0.974 ± 0.25	1.03 ± 0.26	1.05 ± 0.19
UniProt O95980	1.05 ± 0.027	1.02 ± 0.096	1.02 ± 0.089	0.994 ± 0.031	0.987 ± 0.098	1.02 ± 0.098
UniProt P06730 and related entries	0.987 ± 0.032	1.01 ± 0.033	0.977 ± 0.012	0.989 ± 0.065	0.967 ± 0.029	1.02 ± 0.035
NUDT3 (UniProt O95989)	0.962 ± 0.08	1.04 ± 0.14	0.938 ± 0.077	0.978 ± 0.099	0.938 ± 0.068	0.947 ± 0.067
TXN (UniProt P10599)	1 ± 0.11	0.934 ± 0.024	0.914 ± 0.039	0.991 ± 0.042	0.905 ± 0.068	0.891 ± 0.04
PRKAR2A (UniProt P13861)	0.998 ± 0.011	0.966 ± 0.015	0.953 ± 0.017	0.966 ± 0.018	0.966 ± 0.019	0.951 ± 0.019
HMGB1 (UniProt P09429)	0.993 ± 0.12	0.959 ± 0.062	1.02 ± 0.045	1.12 ± 0.076	1.07 ± 0.02	0.89 ± 0.2
HEXB (UniProt P07686)	0.963 ± 0.031	0.981 ± 0.033	0.958 ± 0.039	0.946 ± 0.041	0.938 ± 0.056	0.944 ± 0.028
UniProt P09132 and related entries	0.948 ± 0.085	0.967 ± 0.063	0.97 ± 0.059	1.05 ± 0.06	1.01 ± 0.031	1.01 ± 0.037
SP1 (UniProt P08047)	0.946 ± 0.045	0.969 ± 0.016	0.976 ± 0.046	1.01 ± 0.041	0.946 ± 0.034	0.947 ± 0.031
UniProt O95985 and related entries	0.984 ± 0.067	0.96 ± 0.077	1.01 ± 0.087	1.06 ± 0.12	1.15 ± 0.13	1.15 ± 0.17
TSPAN13 (UniProt O95857)	0.878 ± 0.11	0.886 ± 0.075	0.932 ± 0.085	0.91 ± 0.059	0.868 ± 0.057	0.911 ± 0.01
DLD (UniProt P09622)	1.04 ± 0.019	1.03 ± 0.052	1.01 ± 0.066	1.01 ± 0.057	1.03 ± 0.071	1.01 ± 0.093
UniProt P08240	1.05 ± 0.058	1.05 ± 0.069	1.06 ± 0.07	1.05 ± 0.088	1.05 ± 0.049	1.07 ± 0.062
HSPD1 (UniProt P10809)	0.944 ± 0.22	1.06 ± 0.1	0.926 ± 0.14	1.11 ± 0.076	0.9953 ± 0.0068	0.92 ± 0.093
RPLP0 (UniProt P05388)	0.929 ± 0.017	0.928 ± 0.063	0.881 ± 0.086	0.822 ± 0.064	0.772 ± 0.038	0.86 ± 0.071
MT2A (UniProt P02795)	0.826 ± 0.056	0.873 ± 0.036	1 ± 0.06	0.93 ± 0.024	0.961 ± 0.18	0.903 ± 0.02
UniProt P13051 and related entries	1.03 ± 0.13	0.999 ± 0.11	0.991 ± 0.1	0.953 ± 0.074	0.965 ± 0.089	0.94 ± 0.048
UniProt P00390 and related entries	1 ± 0.062	0.97 ± 0.072	0.935 ± 0.041	0.93 ± 0.1	0.987 ± 0.046	0.965 ± 0.061
EPHX1 (UniProt P07099)	1.05 ± 0.18	1.03 ± 0.14	1.04 ± 0.15	0.948 ± 0.2	1.07 ± 0.12	1.01 ± 0.12
ACADS (UniProt P16219)	1.07 ± 0.12	1.06 ± 0.058	1.01 ± 0.05	0.991 ± 0.11	1.04 ± 0.06	1.03 ± 0.046
TOMM40 (UniProt O96008)	0.968 ± 0.063	0.985 ± 0.064	0.957 ± 0.049	0.931 ± 0.074	0.968 ± 0.036	0.965 ± 0.033
GOT2 (UniProt P00505)	0.955 ± 0.11	0.945 ± 0.1	0.923 ± 0.049	0.906 ± 0.11	0.926 ± 0.05	0.927 ± 0.085
UniProt P05106	0.974 ± 0.025	0.978 ± 0.075	1 ± 0.048	1.03 ± 0.038	0.938 ± 0.013	0.96 ± 0.031
PGK1 (UniProt P00558)	0.97 ± 0.04	0.933 ± 0.035	0.936 ± 0.029	0.941 ± 0.035	0.924 ± 0.011	0.928 ± 0.023
HCLS1 (UniProt P14317)	0.941 ± 0.062	0.937 ± 0.017	0.904 ± 0.025	0.989 ± 0.014	0.9 ± 0.032	0.908 ± 0.032
UniProt P07355 and related entries	0.9813 ± 0.007	0.994 ± 0.022	0.967 ± 0.025	0.988 ± 0.048	0.959 ± 0.027	0.923 ± 0.048

An excerpt of these results, as comma-separated lines:
Target,NP40-soluble protein abundance (concentration: 1mM),NP40-soluble protein abundance (concentration: 2mM),NP40-soluble protein abundance (concentration: 4mM),NP40-soluble protein abundance (concentration: 6mM),NP40-soluble protein abundance (concentration: 8mM),NP40-soluble protein abundance (concentration: 10mM)
ALDOC (UniProt P09972),1.01 ± 0.034,1.01 ± 0.037,0.988 ± 0.047,1 ± 0.049,0.968 ± 0.054,0.957 ± 0.05
UROD (UniProt P06132),0.9889 ± 0.0093,0.9953 ± 0.0074,0.98 ± 0.06,0.996 ± 0.043,0.988 ± 0.082,0.961 ± 0.05
CLPTM1 (UniProt O96005),0.963 ± 0.047,0.976 ± 0.056,0.999 ± 0.052,0.944 ± 0.09,0.944 ± 0.03,0.973 ± 0.049
RAP2A (UniProt P10114),1 ± 0.25,1.12 ± 0.22,1.13 ± 0.21,0.974 ± 0.25,1.03 ± 0.26,1.05 ± 0.19
TXN (UniProt P10599),1 ± 0.11,0.934 ± 0.024,0.914 ± 0.039,0.991 ± 0.042,0.905 ± 0.068,0.891 ± 0.04
UniProt P09132 and related entries,0.948 ± 0.085,0.967 ± 0.063,0.97 ± 0.059,1.05 ± 0.06,1.01 ± 0.031,1.01 ± 0.037
DLD (UniProt P09622),1.04 ± 0.019,1.03 ± 0.052,1.01 ± 0.066,1.01 ± 0.057,1.03 ± 0.071,1.01 ± 0.093
RPLP0 (UniProt P05388),0.929 ± 0.017,0.928 ± 0.063,0.881 ± 0.086,0.822 ± 0.064,0.772 ± 0.038,0.86 ± 0.071
